Drawing on PubChem BioAssay AID1487 (National Center for Advancing Translational Sciences (NCATS), 2009), this text covers AC50 for 53 molecules.

This test can be described thus: qHTS Assay for Modulators of Lamin A Splicing. Conditions: HeLa LMNA splicing GFP/RFP minigene ratio, 48 h. In a few lines:
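S3 HeLa stable clones carrying a lamin A-EGFP splicing minigene plus DsRed2 were seeded at 600 cells/well in Opti-MEM with 2% FBS, pin-dosed and incubated 48 h at 37°C. Acumen cytometry (488 nm) gave the GFP/RFP total-intensity ratio.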

Where [1] appears, read: measured here: GFP splicing reporter channel.
Where [2] appears, read: measured here: RFP viability control channel.

This is one part of the list. Shown are side measurements of this screen, not its main read-out; they come without a call. Most of these compounds were active or inconclusive in the main read-out, so they are no random draw. Potencies come from curve fits of mixed quality, noted in brackets.

`CCC(=O)N1c2ccc(S(=O)(=O)CCC(=O)N3CCn4c3nc3ccccc34)cc2CC1C` (stereo not drawn): the AC50 runs as follows: under setting [1], 6.31 µM [falling, single point]; under setting [2], 0.355 µM [falling, partial curve].

As to `CCOC(=O)CCn1nc(-c2ccc(Cl)cc2)cc1N`, the AC50 under setting [2] is 35.5 µM [falling, single point].

Regarding `CCSc1nc(=S)cc(C)[nH]1`, the AC50 is, setting by setting: under setting [1], 0.0178 µM [falling, full curve, poor fit]; under setting [2], 0.02 µM [falling, full curve, poor fit].

As for `O=C(c1ccc(C#CC2(O)CCCCC2)cc1)N1CCN(C(c2ccccc2)c2ccccc2)CC1`, the AC50 reads like this: under setting [1], 15.8 µM [rising, single point]; under setting [2], 20 µM [rising, single point].

As to `NC(=O)c1ncn(C2OC(CO)C(O)C2O)c1N` (stereo not drawn), the half-maximal activity concentration (AC50) by setting is: under setting [1], 0.01 µM [falling, full curve, poor fit]; under setting [2], 0.794 µM [rising, full curve, poor fit].

For `CC(/C=C/C=C(\C)C(=O)O[C@@H]1O[C@H](CO[C@@H]2O[C@H](CO)[C@@H](O)[C@H](O)[C@H]2O)[C@@H](O)[C@H](O)[C@H]1O)=C\C=C\C=C(C)\C=C\C=C(/C)C(=O)O[C@@H]1O[C@H](CO[C@@H]2O[C@H](CO)[C@@H](O)[C@H](O)[C@H]2O)[C@@H](O)[C@H](O)[C@H]1O`, the AC50 runs as follows: under setting [1], 0.000891 µM [falling, full curve, poor fit]; under setting [2], 15.8 µM [rising, single point].

`O=C(CN1CCN(c2ccc([N+](=O)[O-])cc2)CC1)Nc1ccccn1`: the AC50 is 8.91 µM [rising, partial curve, poor fit] under setting [1] and 22.4 µM [rising, partial curve] under setting [2].

Regarding `Nc1nc2ccccc2n1C(=O)c1ccc(F)cc1`, the AC50 is, setting by setting: under setting [1], 0.00316 µM [falling, full curve, poor fit]; under setting [2], 0.00316 µM [falling, full curve, poor fit].

For the molecule `CCC[C@H]1C[C@H](C(=O)N[C@H]([C@@H]2O[C@H](SC)[C@@H](O)[C@H](O)[C@@H]2O)[C@H](C)O)N(C)C1`, the half-maximal activity concentration (AC50) was 0.0631 µM [falling, full curve, poor fit] under setting [1] and 0.0631 µM [falling, full curve, poor fit] under setting [2].

As to `N#C/C(=C\c1ccc2c(c1)OCO2)C(=O)NCc1ccco1`, the half-maximal activity concentration (AC50) runs as follows: under setting [1], 1.12 µM [falling, partial curve, poor fit]; under setting [2], 0.00398 µM [falling, full curve, poor fit].

In the case of `O=C(Nc1ccccc1)Nc1ccc(Cl)c([N+](=O)[O-])c1`, the AC50 under setting [2] was 22.4 µM [rising, single point].

For `Cc1ccc(CCC(=O)Nc2ccccc2F)s1`, the concentration at half-maximal activity (AC50) under setting [1] is 5.01 µM [falling, single point].

Take `COc1cc(OC)c(NC(=S)Nc2cc(Cl)cc(Cl)c2)cc1Cl`: the half-maximal activity concentration (AC50) under setting [2] was 35.5 µM [rising, single point].

As to `CCOC(=O)c1sc(N(Cc2ccccc2)C(=O)COC(=O)c2ccc(O)cc2)nc1C`, the half-maximal activity concentration (AC50) under setting [1] is 2.82 µM [rising, partial curve, poor fit] and the concentration at half-maximal activity (AC50) under setting [2] was 14.1 µM [rising, partial curve, poor fit].

Regarding `CSc1nc2ccc(NS(=O)(=O)c3ccc4c(c3)OCCO4)cc2s1`, under setting [2], the half-maximal activity concentration (AC50) is 3.16 µM [rising, single point].

With `CCc1ccc(N2C(=O)CS(=O)(=O)C23C(=O)N(Cc2ccccc2)c2ccccc23)cc1` (stereo not drawn), the half-maximal activity concentration (AC50) under setting [1] is 2.51 µM [falling, partial curve, poor fit].

Regarding `COc1ccc(OCCn2cc(/C=N/NC(=O)c3ccncc3)c3ccccc32)cc1`, under setting [2], the AC50 is 35.5 µM [rising, single point].

In the case of `CCOc1ccc(NC(=S)N2CCCN(Cc3cccc(Cl)c3)C2)cc1`, the half-maximal activity concentration (AC50) under setting [1] was 20 µM [falling, single point] and the AC50 under setting [2] is 20 µM [falling, partial curve, poor fit].

Consider `O=[N+]([O-])c1cc(C2Nc3cccc4cccc(c34)N2)ccc1Cl`, for which the AC50 under setting [2] is 0.794 µM [rising, full curve, poor fit].

With `CCCc1nn(C)c2c(=O)[nH]c(-c3cc(S(=O)(=O)N4CCN(C)CC4)ccc3OCC)nc12`, the half-maximal activity concentration (AC50) under setting [1] is 35.5 µM [falling, single point].

As for `CCOC(=O)C(=NCCCN1CCOCC1)NNc1cccc(C(F)(F)F)c1`, under setting [1], the AC50 was 12.6 µM [rising, single point].

Regarding `Cc1ccc(N(Cc2ccco2)C(=O)c2ccc(N3CCCCC3)c([N+](=O)[O-])c2)cc1`, under setting [1], the concentration at half-maximal activity (AC50) is 12.6 µM [rising, single point].

In the case of `CN(C)c1nc(Oc2ccc(OCCOc3ccccc3)nn2)nc(N(C)C)n1`, the half-maximal activity concentration (AC50) under setting [2] is 0.112 µM [falling, full curve, poor fit].

On to `COc1ccccc1CN1CCNC(=O)C1CC(=O)NCCC1=CCCCC1` (stereo not drawn), for which the half-maximal activity concentration (AC50) under setting [1] was 6.31 µM [falling, partial curve, poor fit] and the AC50 under setting [2] was 0.447 µM [falling, partial curve, poor fit].

Turning to `O=C(Nc1ccccc1N1CCOCC1)C1CCN(S(=O)(=O)c2ccccc2F)CC1`, the concentration at half-maximal activity (AC50) under setting [2] was 8.91 µM [rising, partial curve].

Consider `COc1ccc(C2=C(C#N)C(=O)OC2)cc1`, for which the concentration at half-maximal activity (AC50) reads like this: under setting [1], 22.4 µM [falling, single point]; under setting [2], 35.5 µM [falling, single point].

Take `O=C(CSc1nc(O)c(C2CCCCC2)c(=O)[nH]1)NCC1CCCO1` (stereo not drawn): the AC50 under setting [1] was 35.5 µM [rising, single point] and the AC50 under setting [2] was 15.8 µM [rising, single point].

Regarding `CCOc1ccc(-c2c(C)nn3c(C)c(C(=O)NCC(C)c4ccccc4)cnc23)cc1OCC` (stereo not drawn), the AC50 reads like this: under setting [1], 5.62 µM [falling, partial curve, poor fit]; under setting [2], 0.251 µM [falling, full curve].

For the molecule `CCc1ccccc1NC(=O)/C(=C/c1ccco1)c1ccccc1`, under setting [2], the AC50 is 7.08 µM [rising, partial curve, poor fit].

Regarding `COc1cc(C)ccc1OCCCCOc1ccccc1C(C)=O`, the AC50 was 3.55 µM [rising, full curve] under setting [1] and 12.6 µM [rising, partial curve] under setting [2].

Regarding `CC(C)c1ccccc1NC(=O)COC(=O)C1(C)CC1(Cl)Cl` (stereo not drawn), the AC50 under setting [2] is 8.91 µM [falling, partial curve].

Consider `Cc1cccc(NC(=O)C(=O)NCCCc2ccccc2)c1`, for which, under setting [2], the AC50 is 22.4 µM [rising, single point].

Regarding `O=c1c2sccc2nc(SCc2cc(=O)n3ccccc3n2)n1-c1ccc(Br)cc1`, the AC50 under setting [1] is 0.355 µM [falling, full curve, poor fit].

Take `CC1(C)[C@@H]2CC[C@]1(C)[C@@H](OC(=O)CSC#N)C2`: the AC50 under setting [2] was 6.31 µM [rising, single point].

`CC(C)CC(C(=O)Nc1oc(-c2ccccc2)c(-c2ccccc2)c1C#N)N1C(=O)c2ccccc2C1=O` (stereo not drawn): the AC50 under setting [2] is 35.5 µM [rising, single point].

On to `COc1ccccc1-c1c(C#N)c(N)nc2c1CCc1ccccc1-2`, for which the concentration at half-maximal activity (AC50) under setting [1] was 35.5 µM [falling, partial curve] and the AC50 under setting [2] was 2.82 µM [falling, partial curve].

On to `Cc1ccc(-c2cc(C(F)F)nc(NCc3cccs3)n2)cc1`, for which the half-maximal activity concentration (AC50) under setting [2] was 0.0141 µM [rising, full curve, poor fit].

In the case of `O=C(N/N=C/c1cc(Br)cc(Br)c1O)c1ccncc1`, the AC50 under setting [2] is 10 µM [rising, partial curve].

Take `OCCN(CCO)c1ccc(C(c2ccc(Cl)cc2)c2ccc(N(CCO)CCO)cc2Cl)c(Cl)c1`: the concentration at half-maximal activity (AC50) is 35.5 µM [falling, partial curve] under setting [1] and 25.1 µM [falling, single point] under setting [2].

Take `CCOC(=O)CSc1nc(C(C)(C)C)nc2ccccc12`: the half-maximal activity concentration (AC50) under setting [1] was 0.794 µM [falling, full curve, poor fit].

Regarding `c1ccc(-c2ccc(-c3cn4c(n3)CCC4)cc2)cc1`, the half-maximal activity concentration (AC50) under setting [2] was 10 µM [rising, partial curve].

On to `CCOc1ccccc1/C=C(/NC(=O)c1ccccc1)C(=O)NCC(=O)O`, for which the AC50 under setting [1] is 6.31 µM [falling, single point].

Regarding `CCOC(=O)N1CCN(c2nc(-c3ccc(Cl)cc3)cs2)CC1`, the AC50 under setting [2] was 17.8 µM [rising, single point].

With `Fc1ccccc1CNC(=S)Nc1cccc(C(F)(F)F)c1`, under setting [2], the AC50 was 35.5 µM [rising, single point].

For the molecule `O=c1c2oc3ccccc3c2ncn1Cc1ccc(F)cc1`, under setting [2], the half-maximal activity concentration (AC50) is 0.0891 µM [falling, full curve, poor fit].

Consider `Cc1ccc(/C(O)=C2/C(=O)C(=O)N(Cc3cccnc3)C2c2ccccn2)cc1` (stereo not drawn), for which the AC50 reads like this: under setting [1], 35.5 µM [falling, single point]; under setting [2], 20 µM [falling, single point].

For the molecule `COc1cc(CNCCc2ccccc2)cc(Br)c1OCC(=O)Nc1ccccc1C`, the AC50 under setting [2] was 11.2 µM [falling, single point].

For `Cc1ccc(CCNC(=O)c2ccc(CNS(=O)(=O)c3ccc(C)cc3)cc2)cc1`, the concentration at half-maximal activity (AC50) under setting [2] is 0.891 µM [falling, full curve, poor fit].

Consider `CCCN1CCCc2cc(CN)ccc21`, for which the half-maximal activity concentration (AC50) under setting [2] was 35.5 µM [rising, single point].

As to `CCc1ccc(C2=NN(c3ccc(S(N)(=O)=O)cc3)C(c3ccc(F)cc3)C2)cc1` (stereo not drawn), the AC50 was 14.1 µM [falling, partial curve] under setting [1] and 35.5 µM [falling, single point] under setting [2].

For `O=C(c1ccc2c(c1)OCO2)N1CCN(c2ccc(C(F)(F)F)cn2)CC1`, the AC50 under setting [2] was 28.2 µM [rising, single point].

Consider `CCOC(=O)N1CCN(c2nc3c(c(=O)[nH]c(=O)n3C)n2Cc2ccccc2Cl)CC1`, for which the half-maximal activity concentration (AC50) under setting [1] is 0.0224 µM [rising, full curve, poor fit].

As to `CC(=O)Nc1cccc(NC(=S)Nc2cccc(Cl)c2Cl)c1`, under setting [2], the concentration at half-maximal activity (AC50) was 0.0112 µM [falling, full curve, poor fit].
